Target: T1, L. donovani TryR (Leishmania donovani, UniProt P39050)
T1 construct: endogenous in cells; host or cells: L. donovani-iRFP (LV9) axenic amastigotes, crude cell extract
Test: biochemical
Method: The activity of L. donovani TryR was measured in the presence of different concentrations of nitrofurans according to the protocol previously described ([Melcón-Fernández et al., 2023]). Briefly, 1 × 10^10 L. donovani-iRFP axenic amastigotes were washed twice in PBS and lysed with a solution containing 1 mM EDTA, 40 mM HEPES, 50 mM Tris HCl pH 7.5, 2 % (v/v) Triton X-100 and Pierce™ Protease Inhibitors Mini Tablets (ThermoFisher Scientific, Waltham, MA, USA). Cell extracts were prepared by mechanical disruption of the cells with 0.5 mm diameter glass beads (Merck, Darmstadt, Germany) and the supernatant obtained by centrifugation at 10,000 rcf for 5 min at 4 °C was used to measure TryR activity in 96-well plates. […] Cell extracts diluted in Tris HCl pH 7.5 (0.43 μg of total protein in 50 μL) were added to launch the reaction. The negative control consisted of 2.5 % DMSO, whereas the blank reaction included the TryR assay solution without T [S]2. […] To determine steady-state conditions, enzymatic activity was measured at 412 nm (ε = 14,150 M^−1 cm^−1) for a period of up to 120 min (with 5 min intervals) at 26 °C in a Varioskan Lux spectrophotometer (ThermoFisher Scientific, Waltham, MA, USA). The experiment was carried out in triplicate and included three technical replicates.

Protein sequences, listed by entry. Tags and fused reporters are not part of them. Lines headed by an entry give the natural chain unless they say otherwise; changes in a name come on top.
UniProt P39050: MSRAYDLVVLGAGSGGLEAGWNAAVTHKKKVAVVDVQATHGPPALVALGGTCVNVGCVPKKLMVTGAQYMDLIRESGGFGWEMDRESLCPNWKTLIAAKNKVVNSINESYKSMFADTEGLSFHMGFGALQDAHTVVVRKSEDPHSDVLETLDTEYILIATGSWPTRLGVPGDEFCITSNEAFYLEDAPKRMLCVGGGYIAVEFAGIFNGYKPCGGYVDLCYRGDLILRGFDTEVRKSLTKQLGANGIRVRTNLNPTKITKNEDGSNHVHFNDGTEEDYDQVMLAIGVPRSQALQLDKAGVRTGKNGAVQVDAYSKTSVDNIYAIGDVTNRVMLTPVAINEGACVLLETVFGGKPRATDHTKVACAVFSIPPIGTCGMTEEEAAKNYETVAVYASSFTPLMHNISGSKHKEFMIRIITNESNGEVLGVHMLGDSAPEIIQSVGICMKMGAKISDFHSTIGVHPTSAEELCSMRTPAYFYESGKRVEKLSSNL

SMILES: CSc1ccc2c(c1)N(CCC1CCCCN1C)c1ccccc1S2 (stereo not shown) [Thioridazine, thioridazine]
- Ki: 5.79 ± 0.82 µM

Source: paper PMC12344264, “Mechanistic, in-silico and in vitro studies with nitrofurans reveal potent leishmanicidal activity and inhibition of trypanothione reductase” (International Journal for Parasitology: Drugs and Drug …, 2025)
